The values below come from patent US20240010687A1 (University of Washington, published 2024).

This assay deals with T1, C5C3_2412_Axle (C5-C3).
T1 sequence: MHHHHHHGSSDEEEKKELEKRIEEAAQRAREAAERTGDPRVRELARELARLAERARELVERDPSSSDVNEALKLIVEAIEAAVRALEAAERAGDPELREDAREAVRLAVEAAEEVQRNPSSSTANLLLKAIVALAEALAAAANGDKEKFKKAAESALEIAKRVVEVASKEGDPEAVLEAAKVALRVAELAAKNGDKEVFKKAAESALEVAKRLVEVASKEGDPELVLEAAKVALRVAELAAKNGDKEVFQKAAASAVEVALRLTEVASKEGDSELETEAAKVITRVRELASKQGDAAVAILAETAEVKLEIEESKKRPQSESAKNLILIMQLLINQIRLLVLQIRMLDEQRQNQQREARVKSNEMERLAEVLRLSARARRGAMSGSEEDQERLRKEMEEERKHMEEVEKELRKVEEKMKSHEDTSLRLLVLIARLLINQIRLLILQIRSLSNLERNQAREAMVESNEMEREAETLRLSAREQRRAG
Nature of the assay: SEC, SAXS, biolayer interferometry binding kinetics and negative stain EM.

These are yes or no findings as the source states them, for the method shown. Some results given as binding are weak or reduced against the parent protein; the word gives no strength.

B1: C5C3_2412_Ring (C5-C3) (designed binder)
chain: MGDRSGHAKKLKTHLENLRRHLDRLDKHAKQLRDILSEHPHDERVKDSIDLLEESVRIVKISIKIFEASVRALLWAINKEAEELAKSPDPEDLKRAVELAEAVVRADPGSNLSKKALEIILRAAAELAKLPDPDALAAAARAASKVQQEMPGSNLAKAAQEIMRQASRAAEEAARRAKETLEKAEKDGDPETALKAVETVVKVARALNQIATAAGSEEAQERAARVAAEAAELALRVFELAEKQGDPEVARRARELIEKVLDLLLSLLTQILQTATKVIDDSNKLLEKLRRSHHHDPKLVETHVELVKRHERLVRQHLKIALMHALAVLELAFPDAEAAKLASKAAKEAEELCKQSTDERLCDLLAELAALLIELAARYPDSEAAKLALKAALEAIELCKQSTDEELCEELVKLAQKLIELAKRYPDSEEAKRALKEAKELIEQCKESTDEDECRELVKRAEELIREAKEGSHHHHHH
In the case of B1, the binding result is “binds”.
